From publication PMC12813190

By UniProt entry, the sequences of proteins in these tests, tags left out.
UniProt Q9HC98: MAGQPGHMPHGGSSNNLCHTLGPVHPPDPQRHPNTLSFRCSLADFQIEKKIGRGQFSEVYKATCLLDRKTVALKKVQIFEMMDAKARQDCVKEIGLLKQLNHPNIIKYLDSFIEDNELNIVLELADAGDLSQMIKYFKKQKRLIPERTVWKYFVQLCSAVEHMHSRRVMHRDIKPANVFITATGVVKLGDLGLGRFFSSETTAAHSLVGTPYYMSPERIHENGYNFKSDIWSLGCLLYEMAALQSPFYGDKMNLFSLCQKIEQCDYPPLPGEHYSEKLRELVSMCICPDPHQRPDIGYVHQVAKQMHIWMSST
UniProt P67809: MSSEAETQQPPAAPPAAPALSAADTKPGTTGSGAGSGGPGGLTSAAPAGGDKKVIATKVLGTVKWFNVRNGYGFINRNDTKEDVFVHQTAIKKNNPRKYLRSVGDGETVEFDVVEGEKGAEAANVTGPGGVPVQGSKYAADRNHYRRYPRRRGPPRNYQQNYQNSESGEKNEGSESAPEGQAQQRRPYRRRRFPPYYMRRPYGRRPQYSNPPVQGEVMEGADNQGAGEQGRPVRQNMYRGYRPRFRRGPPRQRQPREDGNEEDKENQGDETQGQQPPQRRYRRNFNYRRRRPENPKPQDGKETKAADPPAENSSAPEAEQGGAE

Biological target: 3×Flag-tagged NEK6 (NIMA-related kinase-6) (UniProt Q9HC98)
Assay: affinity purification with mass spectrometry; Flag-NEK6 precipitated from 293T lysate with anti-Flag beads at 4 °C overnight; beads washed five times with buffer containing 10 μg/mL RNase A; eluate resolved by SDS-PAGE, Coomassie staining, LC-MS/MS; empty vector as control

binding: binds
Substance: Y-box-binding protein 1 (YBX1), endogenous in 293T cells (from UniProt P67809 1-324)

Results are given in words; binding and its absence hold for the method and conditions named. Binding seen in cells or lysates may run through a third protein. Here binding means that the protein was enriched with, or labelled near, the bait; the list need not be complete.
